Measurements taken from patent publication US20180193336A1, “SPRAY DRY FORMULATIONS” (Pulmokine, Inc., priority 2013, published 2018).

Test system: PDGFAA stimulated AKT phosphorylation
Experiment: In cell Western, PDGFAA stimulated AKT phosphorylation in human fetal lung fibroblasts
Type: cell-based
Procedure: HLFs were maintained in subculture at no more than 6 passages in DMEM with 5% FBS and 4 mM Glutamax at 37° C., 5% CO2. HLFs were plated and grown to 70-80% confluence in 96 well plates then serum-starved for 48 hours. […] Cells were fixed in 3.7% formaldehyde, washed with 0.1% Triton X-100, and treated with Odyssey Blocking Buffer for 90 min. Proteins were incubated overnight 1:100 diluted rabbit mAb to phosphorylated AKT (Ser 473 or Thr 308) and 1:100 mouse mAb to total Akt-pan-4040D. Antibodies were detected using IRDye 680LT goat anti-mouse IgG and IRDye 800 W goat α-rabbit IgG conjugated antibodies. After washing, the signal was quantified using an Odyssey Infrared Imaging System (LI-COR). Phosphoprotein signal (800 nm) was normalized to total protein signal (700 nm) acquired from each well and experimental duplicates on same plate were averaged and reported.

Cc1ccc(NC(=O)c2ccc(CN3CCN(C)CC3)cc2)cc1Nc1nccc(-c2cccnc2)n1 [Imatinib, reference compound]
IC50 for PDGFAA stimulated phosphorylation of AKT, PK10453 compared with imatinib: not significantly different
